From patent US7160887B1, “Aromatic amine derivatives, their production and use” (Takeda Pharmaceutical Company Limited, priority 1998, dated 2007)
Counter-ions that a name gives are not always drawn. Some results were stated once for a whole list of compounds, not compound by compound. At least one compound was matched to its structure with a doubt left.

target: human somatostatin receptor; assay: 125I-somatostatin binding inhibition; conditions: 50% binding inhibition concentration of 125I-somatostatin binding; human somatostatin receptor-containing CHO cell membrane fraction; 25° C., 60 minutes; read-out: reactivity (IC50, μM) on the human somatostatin receptor

IC50, ≤ 10 µM:
CC(=O)Nc1ccc(CN(C(=O)CCC(=O)NCc2cccc3ccccc23)c2ccccc2Oc2cccc(CN)c2)cc1 [Example 71, N-[2-(3-aminomethylphenoxy)phenyl]-N-(4-acetamidobenzyl)-N′-(1-naphthylmethyl)succinamide trifluoroacetate]
CC(=O)Nc1ccc(CN(C(=O)CCC(=O)N2CCc3ccccc3C2)c2ccccc2Oc2cccc(CN)c2)cc1 [Example 74, N-[2-(3-aminomethylphenoxy)phenyl]-N-(4-acetamidobenzyl)-N′-(1,2,3,4-tetrahydroisoquinolino)succinamide trifluoroacetate]
CC(=O)Nc1ccc(CN(C(=O)CCC(=O)NCCN2CCCC2)c2ccccc2Oc2cccc(CN)c2)cc1 [Example 76, N-[2-(3-aminomethylphenoxy)phenyl]-N-(4-acetamidobenzyl)-N′-[2-(1-pyrrolidinoethyl)]succinamide trifluoroacetate]
N#Cc1ccc(CN(C(=O)CCC(=O)NCc2ccccc2F)c2ccccc2Oc2cccc(CN)c2)cc1 [Example 77, N-[2-(3-aminomethylphenoxy)phenyl]-N-(4-cyanobenzyl)-N′-(2-fluorobenzyl)succinamide trifluoroacetate]
N#Cc1ccc(CN(C(=O)CCC(=O)NCc2ccc(F)c(F)c2)c2ccccc2Oc2cccc(CN)c2)cc1 [Example 79, N-[2-(3-aminomethylphenoxy)phenyl]-N-(4-cyanobenzyl)-N′-(3,4-difluorobenzyl)succinamide trifluoroacetate]
N#Cc1ccc(CN(C(=O)CCC(=O)NCc2ccccc2C(F)(F)F)c2ccccc2Oc2cccc(CN)c2)cc1 [Example 80, N-[2-(3-aminomethylphenoxy)phenyl]-N-(4-cyanobenzyl)-N′-(2-trifluoromethylbenzyl)succinamide trifluoroacetate]
N#Cc1ccc(CN(C(=O)CCC(=O)NCCc2ccc(Cl)cc2Cl)c2ccccc2Oc2cccc(CN)c2)cc1 [Example 82, N-[2-(3-aminomethylphenoxy)phenyl]-N-(4-cyanobenzyl)-N′-[[2-(2,4-dichlorophenethyl)]succinamide trifluoroacetate]
N#Cc1ccc(CN(C(=O)CCC(=O)NCc2cccc3ccccc23)c2ccccc2Oc2cccc(CN)c2)cc1 [Example 83, N-[2-(3-aminomethylphenoxy)phenyl]-N-(4-cyanobenzyl)-N′-(1-naphthylmethyl)succinamide trifluoroacetate]
N#Cc1ccc(CN(C(=O)CCC(=O)NC2CCc3ccccc32)c2ccccc2Oc2cccc(CN)c2)cc1 (stereo not shown) [Example 84, N-[2-(3-aminomethylphenoxy)phenyl]-N-(4-cyanobenzyl)-N′-(1-indanyl)succinamide trifluoroacetate]
N#Cc1ccc(CN(C(=O)CCC(=O)N2CCc3ccccc3C2)c2ccccc2Oc2cccc(CN)c2)cc1 [Example 86, N-[2-(3-aminomethylphenoxy)phenyl]-N-(4-cyanobenzyl)-N′-(1,2,3,4-tetrahydroisoquinolino)succinamide trifluoroacetate]
COc1cc(CN(C(=O)CCC(=O)NCc2c(F)cccc2F)c2ccccc2Oc2cccc(CN)c2)cc(OC)c1OC [Example 90, N-[2-(3-aminomethylphenoxy)phenyl]-N-(3,4,5-trimethoxybenzyl)-N′-(2,6-difluorobenzyl)succinamide trifluoroacetate]
COc1cc(CN(C(=O)CCC(=O)NCc2ccccc2C(F)(F)F)c2ccccc2Oc2cccc(CN)c2)cc(OC)c1OC [Example 92, N-[2-(3-aminomethylphenoxy)phenyl]-N-(3,4,5-trimethoxybenzyl)-N′-(2-trifluoromethylbenzyl)succinamide trifluoroacetate]
COc1ccccc1CNC(=O)CCC(=O)N(Cc1cc(OC)c(OC)c(OC)c1)c1ccccc1Oc1cccc(CN)c1 [Example 93, N-[2-(3-aminomethylphenoxy)phenyl]-N-(3,4,5-trimethoxybenzyl)-N′-(2-methoxybenzyl)succinamide trifluoroacetate]
COc1cc(CN(C(=O)CCC(=O)NCCc2ccc(Cl)cc2Cl)c2ccccc2Oc2cccc(CN)c2)cc(OC)c1OC [Example 94, N-[2-(3-aminomethylphenoxy)phenyl]-N-(3,4,5-trimethoxybenzyl)-N′-[2-(2,4-dichlorophenethyl)]succinamide trifluoroacetate]
COc1cc(CN(C(=O)CCC(=O)NCc2cccc3ccccc23)c2ccccc2Oc2cccc(CN)c2)cc(OC)c1OC [Example 95, N-[2-(3-aminomethylphenoxy)phenyl]-N-(3,4,5-trimethoxybenzyl)-N′-(1-naphthylmethyl)succinamide trifluoroacetate]
COc1cc(CN(C(=O)CCC(=O)NC2CCc3ccccc32)c2ccccc2Oc2cccc(CN)c2)cc(OC)c1OC (stereo not shown) [Example 96, N-[2-(3-aminomethylphenoxy)phenyl]-N-(3,4,5-trimethoxybenzyl)-N′-(1-indanyl)succinamide trifluoroacetate]
COc1cc(CN(C(=O)CCC(=O)N2CCc3ccccc3C2)c2ccccc2Oc2cccc(CN)c2)cc(OC)c1OC [Example 98, N-[2-(3-aminomethylphenoxy)phenyl]-N-(3,4,5-trimethoxybenzyl)-N′-(1,2,3,4-tetrahydroisoquinolino)succinamide trifluoroacetate]
NCc1cccc(Oc2ccccc2N(Cc2ccc3c(c2)Cc2ccccc2-3)C(=O)CCC(=O)NCc2ccccc2F)c1 [Example 101, N-[2-(3-aminomethylphenoxy)phenyl]-N-(2-fluorenylmethyl)-N′-(2-fluorobenzyl)succinamide trifluoroacetate]
NCc1cccc(Oc2ccccc2N(Cc2ccc3c(c2)Cc2ccccc2-3)C(=O)CCC(=O)NCc2c(F)cccc2F)c1 [Example 102, N-[2-(3-aminomethylphenoxy)phenyl]-N-(2-fluorenylmethyl)-N′-(2,6-difluorobenzyl)succinamide trifluoroacetate]
NCc1cccc(Oc2ccccc2N(Cc2ccc3c(c2)Cc2ccccc2-3)C(=O)CCC(=O)NCc2ccc(F)c(F)c2)c1 [Example 103, N-[2-(3-aminomethylphenoxy)phenyl]-N-(2-fluorenylmethyl)-N′-(3,4-difluorobenzyl)succinamide trifluoroacetate]
NCc1cccc(Oc2ccccc2N(Cc2ccc3c(c2)Cc2ccccc2-3)C(=O)CCC(=O)NCc2ccccc2C(F)(F)F)c1 [Example 104, N-[2-(3-aminomethylphenoxy)phenyl]-N-(2-fluorenylmethyl)-N′-(2-trifluoromethylbenzyl)succinamide trifluoroacetate]
COc1ccccc1CNC(=O)CCC(=O)N(Cc1ccc2c(c1)Cc1ccccc1-2)c1ccccc1Oc1cccc(CN)c1 [Example 105, N-[2-(3-aminomethylphenoxy)phenyl]-N-(2-fluorenylmethyl)-N′-(2-methoxybenzyl)succinamide trifluoroacetate]
NCc1cccc(Oc2ccccc2N(Cc2ccc3c(c2)Cc2ccccc2-3)C(=O)CCC(=O)NCCc2ccc(Cl)cc2Cl)c1 [Example 106, N-[2-(3-aminomethylphenoxy)phenyl]-N-(2-fluorenylmethyl)-N′-[2-(2,4-dichlorophenethyl)]succinamide trifluoroacetate]
NCc1cccc(Oc2ccccc2N(Cc2ccc3c(c2)Cc2ccccc2-3)C(=O)CCC(=O)NCc2cccc3ccccc23)c1 [Example 107, N-[2-(3-aminomethylphenoxy)phenyl]-N-(2-fluorenylmethyl)-N′-(1-naphthylmethyl)succinamide trifluoroacetate]
NCc1cccc(Oc2ccccc2N(Cc2ccc3c(c2)Cc2ccccc2-3)C(=O)CCC(=O)NC2CCc3ccccc32)c1 (stereo not shown) [Example 108, N-[2-(3-aminomethylphenoxy)phenyl]-N-(2-fluorenylmethyl)-N′-(1-indanyl)succinamide trifluoroacetate]
NCc1cccc(Oc2ccccc2N(Cc2ccc3c(c2)Cc2ccccc2-3)C(=O)CCC(=O)NCc2ccccn2)c1 [Example 109, N-[2-(3-aminomethylphenoxy)phenyl]-N-(2-fluorenylmethyl)-N′-(2-pyridylmethyl)succinamide trifluoroacetate]
NCc1cccc(Oc2ccccc2N(Cc2ccc3c(c2)Cc2ccccc2-3)C(=O)CCC(=O)N2CCc3ccccc3C2)c1 [Example 110, N-[2-(3-aminomethylphenoxy)phenyl]-N-(2-fluorenylmethyl)-N′-(1,2,3,4-tetrahydroisoquinolino)succinamide trifluoroacetate]
NCc1cccc(Oc2ccccc2N(Cc2ccc3c(c2)Cc2ccccc2-3)C(=O)CCC(=O)NCCN2CCCC2)c1 [Example 112, N-[2-(3-aminomethylphenoxy)phenyl]-N-(2-fluorenylmethyl)-N′-[2-(1-pyrrolidinoethyl)]succinamide trifluoroacetate]
